In patent US8389481B2, “Glutamate-enhanced cell-penetrating peptides and methods of using same” (University of Medicine and Dentistry of New Jersey, priority 2008, dated 2013):
Some of these results come from one statement about several compounds together. Peptide text beside a SMILES is read from it. * marks the point of attachment. 5FAM = O=C1OC2(c3ccc(O)cc3Oc3cc(O)ccc32)c2ccc(C(=O)*)cc21

System: DU-145 cells
Assay: Cell death determined by staining with 7-AAD
Format: cell-based
Conditions: 3000 nM, 1 hr
Procedure: In order to determine if uptake of peptide 353 was receptor-mediated or receptor-specific in any way, Glu residues were substituted by Phe residues (peptide 361) or Asn residues (peptide 362). The resulting peptides were incubated at 0 to 3000 nM with DU-145 cells for 1 hr. Cells were then harvested and processed for analysis by flow cytometry. […] At 3000 nM, peptides 361 and 362 induced cell death in more than 70% of the cells (determined by staining with 7-AAD); in the case of peptide 361, over 95% of DU-145 cells were positive for 7-AAD; therefore only geometric MFI for concentrations up to 1000 nM are shown in the figure. […]
Uptake and Fluorescence Quantification Studies: Peptides were added to subconfluent cultures of cells at times, temperatures, and concentrations indicated in experiments. […] Cells were analyzed in the presence of […] 7-AAD (eBioscience, San Digeo Calif.) to gate on live events. Fluorescence was quantified, after cells were harvested, using a FACScan flow cytometer. […] Fluorescence detectors on the instrument were standardized prior to each acquisition run, so that fluorescence intensities from different days could be compared. Because the FACScan employs logarithmic amplifiers on the fluorescence detectors, the more accurate parameter with which to compare fluorescence intensities for different samples is the geometric mean fluorescence intensity (geometric MFI). […]

## C[C@H](NC(=O)[C@H](C)NC(=O)[C@H](CC(N)=O)NC(=O)[C@H](CC(N)=O)NC(=O)[C@@H](N)CC(N)=O)C(=O)NCC(=O)N[C@@H](CCCNC(=N)N)C(=O)N[C@@H](CCCCN)C(=O)N[C@@H](CCCNC(=N)N)C(=O)N[C@@H](CCCCN)C(=O)N[C@@H](CCCCN)C(=O)N[C@@H](CCCNC(=N)N)C(=O)N[C@H](C(=O)N[C@@H](CCCCNC(=O)c1ccc2c(c1)C(=O)OC21c2ccc(O)cc2Oc2cc(O)ccc21)C(=O)O)[C@@H](C)O [Peptide 362, NNNAAGRKRKKRT-FITC] (H-NNNAAGRKRKKRTK(5FAM)-OH)
  cell death, cells positive for 7-AAD: more than 70%
